# Results: patent US20240166603A1, “Method of Treating Cancer With Atpenin A5 Derviatives” (Texas Tech University System, priority 2018, published 2024)
# Like-named read-outs stand apart in the source and are kept apart here.
# Key:
# [1] = female, in vivo, 1 mg/kg
# [2] = test system: 3T3 cells; experiment: Cytotoxicity, 3T3 mouse embryonic fibroblast cells; assay type: cell-based; conditions: NIH3T3
# [3] = test system: 22Rv1 prostate cancer cells; experiment: Cytotoxicity MTS assay, 22Rv1; conditions: Homo sapiens
# [4] = test system: WPMY-1 prostate stromal cells; experiment: Cytotoxicity, WPMY-1 prostate stromal cells; assay type: cell-based; conditions: Homo sapiens
Structure (SMILES),Cmax [1] [ng/mL],IC50 [2] [µg/mL],"IC50 ([3]; 22Rv1, 48 h, read-out: 22Rv1 IC50) [µg/mL]","IC50 ([3]; 22Rv1, 72 h, read-out: 22Rv1 IC50 after 72 hour treatment) [µg/mL]",IC50 [4] [µg/mL]
"CCCCCC(=O)c1c(O)nc(OC)c(OC)c1O [Compound 16c, 1-(2,4-dihydroxy-5,6-dimethoxypyridin-3-yl)hexan-1-one]",76.70,,,,
"CNC(=O)c1ccc(N2C(=S)N(c3ccc(C#N)c(C(F)(F)F)c3)C(=O)C2(C)C)cc1F [Enzalutamide, enzalutamide, reference compound]",,70.8,21,21,96.9
